Results published in PMC4498735, “Fibulin-1C, C1 Esterase Inhibitor and Glucose Regulated Protein 75 Interact with the CREC Proteins, Calumenin and Reticulocalbin” (PLoS ONE, 2015).
No constants are given. Whether binding was seen depends on the method and setting. Binding seen in cells or lysates may run through a third protein. A yes stands for co-enrichment or nearness to the bait. Other partners may have been found.

Chains of the proteins cited; added tags and fusions are not shown. Residues count along the entry.
UniProt O43852, residues 20-315: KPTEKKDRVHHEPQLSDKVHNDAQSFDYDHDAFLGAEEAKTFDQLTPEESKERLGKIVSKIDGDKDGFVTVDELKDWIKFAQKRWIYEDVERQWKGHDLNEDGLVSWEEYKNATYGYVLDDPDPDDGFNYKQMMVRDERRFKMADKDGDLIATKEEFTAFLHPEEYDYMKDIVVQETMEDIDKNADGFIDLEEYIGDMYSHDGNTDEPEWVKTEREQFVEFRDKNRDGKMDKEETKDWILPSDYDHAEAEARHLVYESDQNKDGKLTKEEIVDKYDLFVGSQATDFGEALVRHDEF
UniProt P07996, residues 19-1170: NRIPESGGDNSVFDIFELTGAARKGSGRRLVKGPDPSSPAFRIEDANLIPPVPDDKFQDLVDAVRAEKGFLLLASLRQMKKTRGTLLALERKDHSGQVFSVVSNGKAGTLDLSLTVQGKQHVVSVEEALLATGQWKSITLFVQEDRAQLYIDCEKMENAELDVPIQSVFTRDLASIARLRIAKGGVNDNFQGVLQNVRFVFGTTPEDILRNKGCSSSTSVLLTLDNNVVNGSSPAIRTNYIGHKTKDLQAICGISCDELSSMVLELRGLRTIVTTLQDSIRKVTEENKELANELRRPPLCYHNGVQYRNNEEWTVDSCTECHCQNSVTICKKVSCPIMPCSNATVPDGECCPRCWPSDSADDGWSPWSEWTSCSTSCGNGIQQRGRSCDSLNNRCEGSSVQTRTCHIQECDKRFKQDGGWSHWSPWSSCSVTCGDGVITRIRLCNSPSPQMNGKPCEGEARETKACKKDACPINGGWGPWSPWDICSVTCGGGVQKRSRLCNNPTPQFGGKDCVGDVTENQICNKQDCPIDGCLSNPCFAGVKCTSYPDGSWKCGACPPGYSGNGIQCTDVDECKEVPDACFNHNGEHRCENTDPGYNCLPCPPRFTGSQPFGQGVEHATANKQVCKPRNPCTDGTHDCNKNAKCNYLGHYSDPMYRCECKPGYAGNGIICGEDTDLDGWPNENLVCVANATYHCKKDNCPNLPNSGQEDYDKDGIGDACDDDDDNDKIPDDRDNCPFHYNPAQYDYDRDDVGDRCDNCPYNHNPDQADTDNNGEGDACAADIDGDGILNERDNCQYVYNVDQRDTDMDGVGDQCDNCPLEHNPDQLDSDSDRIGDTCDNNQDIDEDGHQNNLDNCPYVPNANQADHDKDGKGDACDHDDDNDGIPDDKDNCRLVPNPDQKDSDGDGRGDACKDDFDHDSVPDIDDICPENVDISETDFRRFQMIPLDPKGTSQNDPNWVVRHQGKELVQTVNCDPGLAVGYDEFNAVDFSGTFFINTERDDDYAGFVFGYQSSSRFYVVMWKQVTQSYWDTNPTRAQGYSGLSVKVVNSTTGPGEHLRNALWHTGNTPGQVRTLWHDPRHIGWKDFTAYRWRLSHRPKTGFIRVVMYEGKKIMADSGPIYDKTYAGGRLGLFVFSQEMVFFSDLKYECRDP

Tests used:
[1] = target: recombinant calumenin (immobilised; construct not told) (UniProt O43852); experiment: affinity purification with mass spectrometry; recombinant calumenin or reticulocalbin coupled to CNBr activated sepharose 4B; dialyzed human placenta extract applied in MB-buffer (2 mM CaCl2, 1 mM MgCl2, 10 mM HEPES, 140 mM NaCl, pH 7.4); stepwise elution with 0.2 to 1 M NaCl and 1 M NaCl with EDTA; reference column without protein; 1D- and 2D-PAGE, silver staining, MALDI-TOF; only the target purified
[2] = target: recombinant reticulocalbin; experiment: as above

Row | binding [1] | binding [2] | Molecule
1 | binds |  | thrombospondin-1 from human placenta extract (from UniProt P07996 19-1170)
2 | binds | binds | fibulin-1 (C variant) from human placenta extract (protein, UniProt P23142-4 30-683) DVLLEACCADGHRMATHQKDCSLPYATESKECRMVQEQCCHSQLEELHCATGISLANEQDRCATPHGDNASLEATFVKRCCHCCLLGRAAQAQGQSCEYSLMVGYQCGQVFQACCVKSQETGDLDVGGLQETDKIIEVEEEQEDPYLNDRCRGGGPCKQQCRDTGDEVVCSCFVGYQLLSDGVSCEDVNECITGSHSCRLGESCINTVGSFRCQRDSSCGTGYELTEDNSCKDIDECESGIHNCLPDFICQNTLGSFRCRPKLQCKSGFIQDALGNCIDINECLSISAPCPIGHTCINTEGSYTCQKNVPNCGRGYHLNEEGTRCVDVDECAPPAEPCGKGHRCVNSPGSFRCECKTGYYFDGISRMCVDVNECQRYPGRLCGHKCENTLGSYLCSCSVGFRLSVDGRSCEDINECSSSPCSQECANVYGSYQCYCRRGYQLSDVDGVTCEDIDECALPTGGHICSYRCINIPGSFQCSCPSSGYRLAPNGRNCQDIDECVTGIHNCSINETCFNIQGGFRCLAFECPENYRRSAATRCERLPCHENRECSKLPLRITYYHLSFPTNIQAPAVVFRMGPSSAVPGDSMQLAITGGNEEGFFTTRKVSPHSGVVALTKPVPEPRDLLLTVKMDLSRHGTVSSFVAKLFIFVSAEL
3 | binds | binds | C1 esterase inhibitor from human placenta extract (protein, UniProt P05155 23-500) NPNATSSSSQDPESLQDRGEGKVATTVISKMLFVEPILEVSSLPTTNSTTNSATKITANTTDEPTTQPTTEPTTQPTIQPTQPTTQLPTDSPTQPTTGSFCPGPVTLCSDLESHSTEAVLGDALVDFSLKLYHAFSAMKKVETNMAFSPFSIASLLTQVLLGAGENTKTNLESILSYPKDFTCVHQALKGFTTKGVTSVSQIFHSPDLAIRDTFVNASRTLYSSSPRVLSNNSDANLELINTWVAKNTNNKISRLLDSLPSDTRLVLLNAIYLSAKWKTTFDPKKTRMEPFHFKNSVIKVPMMNSKKYPVAHFIDQTLKAKVGQLQLSHNLSLVILVPQNLKHRLEDMEQALSPSVFKAIMEKLEMSKFQPTLLTLPRIKVTTSQDMLSIMEKLEFFDFSYDLNLCGLTEDPDLQVSAMQHQTVLELTETGVEAAAASAISVARTLLVFEVQQPFLFVLWDQQHKFPVFMGRVYDPRA
